These are yes or no findings as the source states them, for the method shown. In cells and extracts the contact can be indirect. Some binding calls cover weakened binding; strength is not graded here. Tags and fused reporters may be left off the sequences shown.
Legend:
Assay in all cases: co-IP
[1] = molecular target: T1, full-length FLAG-RASSF5 (human) (UniProt Q8WWW0)
T1 sequence: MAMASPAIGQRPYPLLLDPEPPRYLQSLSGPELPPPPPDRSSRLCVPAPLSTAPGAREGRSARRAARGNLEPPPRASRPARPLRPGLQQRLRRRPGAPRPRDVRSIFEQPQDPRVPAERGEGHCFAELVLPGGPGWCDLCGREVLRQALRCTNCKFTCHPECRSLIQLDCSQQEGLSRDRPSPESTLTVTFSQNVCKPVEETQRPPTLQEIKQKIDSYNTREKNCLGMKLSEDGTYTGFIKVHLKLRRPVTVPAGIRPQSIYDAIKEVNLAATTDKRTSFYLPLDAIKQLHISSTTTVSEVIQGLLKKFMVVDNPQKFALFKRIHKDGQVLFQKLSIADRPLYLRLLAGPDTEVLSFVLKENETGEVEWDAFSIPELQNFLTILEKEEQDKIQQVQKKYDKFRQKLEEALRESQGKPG

Amino acid sequences for entries named in this document (tags omitted).
UniProt O75901: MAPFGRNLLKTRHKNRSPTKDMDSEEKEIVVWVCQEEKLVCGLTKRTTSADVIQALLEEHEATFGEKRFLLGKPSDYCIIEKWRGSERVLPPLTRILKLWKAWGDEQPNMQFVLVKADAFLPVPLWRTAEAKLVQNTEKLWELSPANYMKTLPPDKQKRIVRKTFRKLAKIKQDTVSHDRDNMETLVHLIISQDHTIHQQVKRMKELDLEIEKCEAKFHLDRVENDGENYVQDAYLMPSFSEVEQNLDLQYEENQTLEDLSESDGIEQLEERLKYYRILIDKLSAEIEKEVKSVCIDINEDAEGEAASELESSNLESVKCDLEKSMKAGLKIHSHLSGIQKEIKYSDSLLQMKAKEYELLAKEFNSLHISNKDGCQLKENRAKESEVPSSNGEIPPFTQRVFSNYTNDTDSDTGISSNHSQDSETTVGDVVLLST

full-length FLAG-RASSF6 = molecular target: T2, full-length FLAG-RASSF6 (UniProt Q6ZTQ3)
T2 sequence: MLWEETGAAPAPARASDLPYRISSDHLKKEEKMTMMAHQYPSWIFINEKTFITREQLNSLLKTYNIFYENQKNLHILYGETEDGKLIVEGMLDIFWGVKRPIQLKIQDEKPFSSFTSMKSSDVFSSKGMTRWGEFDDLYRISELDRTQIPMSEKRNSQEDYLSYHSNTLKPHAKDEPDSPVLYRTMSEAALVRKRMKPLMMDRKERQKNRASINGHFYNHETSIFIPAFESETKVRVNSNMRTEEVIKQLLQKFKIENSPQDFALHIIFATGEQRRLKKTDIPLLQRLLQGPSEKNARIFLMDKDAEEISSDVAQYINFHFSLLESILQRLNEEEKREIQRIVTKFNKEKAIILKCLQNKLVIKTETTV

full-length FLAG-RASSF8 = molecular target: T3, full-length FLAG-RASSF8 (UniProt Q8NHQ8)
T3 sequence: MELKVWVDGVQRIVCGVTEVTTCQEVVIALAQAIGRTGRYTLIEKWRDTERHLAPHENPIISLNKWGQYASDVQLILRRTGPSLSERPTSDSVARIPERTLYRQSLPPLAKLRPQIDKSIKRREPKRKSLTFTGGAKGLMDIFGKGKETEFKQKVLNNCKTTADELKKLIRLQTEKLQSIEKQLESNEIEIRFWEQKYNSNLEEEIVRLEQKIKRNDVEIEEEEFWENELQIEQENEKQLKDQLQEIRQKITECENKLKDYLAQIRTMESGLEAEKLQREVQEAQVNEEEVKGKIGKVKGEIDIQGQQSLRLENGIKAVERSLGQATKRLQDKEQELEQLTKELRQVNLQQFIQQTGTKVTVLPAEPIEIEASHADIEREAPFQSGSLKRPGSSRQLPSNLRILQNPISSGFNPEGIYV

[2] = molecular target: full-length FLAG-RASSF9 (human) (UniProt O75901)
[3] = molecular target: T4, full-length FLAG-RASSF1A (human) (UniProt Q9NS23)
T4 sequence: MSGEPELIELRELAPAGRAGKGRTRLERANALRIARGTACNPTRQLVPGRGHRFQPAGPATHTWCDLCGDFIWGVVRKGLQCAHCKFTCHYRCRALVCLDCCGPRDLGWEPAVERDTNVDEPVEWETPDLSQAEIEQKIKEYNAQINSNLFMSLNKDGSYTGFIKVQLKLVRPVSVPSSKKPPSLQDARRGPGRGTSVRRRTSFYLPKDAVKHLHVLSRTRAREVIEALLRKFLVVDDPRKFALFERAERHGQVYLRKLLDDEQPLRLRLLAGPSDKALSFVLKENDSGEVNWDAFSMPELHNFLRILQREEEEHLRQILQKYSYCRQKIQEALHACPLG

[4] = molecular target: T5, full-length FLAG-RASSF10 (mouse) (UniProt Q8BL43)
T5 sequence: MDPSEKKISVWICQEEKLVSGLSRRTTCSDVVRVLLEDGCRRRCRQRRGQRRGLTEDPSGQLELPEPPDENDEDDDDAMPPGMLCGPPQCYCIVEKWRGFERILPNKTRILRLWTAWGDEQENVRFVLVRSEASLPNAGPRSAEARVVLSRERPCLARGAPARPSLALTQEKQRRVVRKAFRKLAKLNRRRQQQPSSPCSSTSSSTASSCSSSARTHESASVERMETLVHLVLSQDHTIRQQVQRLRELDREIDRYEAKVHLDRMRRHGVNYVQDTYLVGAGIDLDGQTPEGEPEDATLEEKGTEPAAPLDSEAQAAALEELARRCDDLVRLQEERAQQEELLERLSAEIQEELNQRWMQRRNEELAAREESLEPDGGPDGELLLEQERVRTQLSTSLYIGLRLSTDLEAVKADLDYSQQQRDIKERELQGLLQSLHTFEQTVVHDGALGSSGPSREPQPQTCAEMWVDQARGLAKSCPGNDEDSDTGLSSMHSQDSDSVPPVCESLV

[5] = molecular target: T6, full-length FLAG-RASSF2 (human) (UniProt P50749)
T6 sequence: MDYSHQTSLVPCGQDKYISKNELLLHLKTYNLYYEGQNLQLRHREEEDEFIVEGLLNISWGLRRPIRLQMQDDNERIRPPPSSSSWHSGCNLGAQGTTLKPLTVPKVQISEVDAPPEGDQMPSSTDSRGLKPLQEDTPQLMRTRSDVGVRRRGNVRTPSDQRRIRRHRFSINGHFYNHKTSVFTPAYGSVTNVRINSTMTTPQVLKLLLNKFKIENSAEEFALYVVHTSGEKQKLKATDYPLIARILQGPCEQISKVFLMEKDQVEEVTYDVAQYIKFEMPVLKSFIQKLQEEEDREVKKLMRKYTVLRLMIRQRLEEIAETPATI

[6] = molecular target: T7, full-length FLAG-RASSF4 (mouse) (UniProt Q8CB96)
T7 sequence: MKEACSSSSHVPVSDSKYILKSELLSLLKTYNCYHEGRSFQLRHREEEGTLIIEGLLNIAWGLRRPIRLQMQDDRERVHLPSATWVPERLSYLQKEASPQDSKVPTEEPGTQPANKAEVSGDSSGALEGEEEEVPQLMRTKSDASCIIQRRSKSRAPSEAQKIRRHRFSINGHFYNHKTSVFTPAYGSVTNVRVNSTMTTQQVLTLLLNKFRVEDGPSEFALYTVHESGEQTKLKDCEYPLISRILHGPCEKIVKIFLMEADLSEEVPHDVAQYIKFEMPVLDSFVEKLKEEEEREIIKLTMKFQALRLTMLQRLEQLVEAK

full-length FLAG-RASSF3 = molecular target: T8, full-length FLAG-RASSF3 (UniProt Q86WH2)
T8 sequence: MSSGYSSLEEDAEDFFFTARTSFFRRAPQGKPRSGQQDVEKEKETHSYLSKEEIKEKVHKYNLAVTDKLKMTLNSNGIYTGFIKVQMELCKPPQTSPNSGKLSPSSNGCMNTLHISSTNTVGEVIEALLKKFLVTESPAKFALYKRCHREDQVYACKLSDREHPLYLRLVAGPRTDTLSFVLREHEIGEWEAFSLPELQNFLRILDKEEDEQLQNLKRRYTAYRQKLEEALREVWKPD

Measured: binding

B1: GFP-MST1 (enzyme, UniProt Q13043)
chain: METVQLRNPPRRQLKKLDEDSLTKQPEEVFDVLEKLGEGSYGSVYKAIHKETGQIVAIKQVPVESDLQEIIKEISIMQQCDSPHVVKYYGSYFKNTDLWIVMEYCGAGSVSDIIRLRNKTLTEDEIATILQSTLKGLEYLHFMRKIHRDIKAGNILLNTEGHAKLADFGVAGQLTDTMAKRNTVIGTPFWMAPEVIQEIGYNCVADIWSLGITAIEMAEGKPPYADIHPMRAIFMIPTNPPPTFRKPELWSDNFTDFVKQCLVKSPEQRATATQLLQHPFVRSAKGVSILRDLINEAMDVKLKRQESQQREVDQDDEENSEEDEMDSGTMVRAVGDEMGTVRVASTMTDGANTMIEHDDTLPSQLGTMVINAEDEEEEGTMKRRDETMQPAKPSFLEYFEQKEKENQINSFGKSVPGPLKNSSDWKIPQDGDYEFLKSWTVEDLQKRLLALDPMMEQEIEEIRQKYQSKRQPILDAIEAKKRRQQNF
no binding: full-length FLAG-RASSF8 | [2] | [4]
binds: all other assays above

B2: HIS-tagged ASPP1 (protein, UniProt Q96KQ4 1-1090)
chain: MMPMILTVFLSNNEQILTEVPITPETTCRDVVEFCKEPGEGSCHLAEVWRGNERPIPFDHMMYEHLQKWGPRREEVKFFLRHEDSPTENSEQGGRQTQEQRTQRNVINVPGEKRTENGVGNPRVELTLSELQDMAARQQQQIENQQQMLVAKEQRLHFLKQQERRQQQSISENEKLQKLKERVEAQENKLKKIRAMRGQVDYSKIMNGNLSAEIERFSAMFQEKKQEVQTAILRVDQLSQQLEDLKKGKLNGFQSYNGKLTGPAAVELKRLYQELQIRNQLNQEQNSKLQQQKELLNKRNMEVAMMDKRISELRERLYGKKIQLNRVNGTSSPQSPLSTSGRVAAVGPYIQVPSAGSFPVLGDPIKPQSLSIASNAAHGRSKSANDGNWPTLKQNSSSSVKPVQVAGADWKDPSVEGSVKQGTVSSQPVPFSALGPTEKPGIEIGKVPPPIPGVGKQLPPSYGTYPSPTPLGPGSTSSLERRKEGSLPRPSAGLPSRQRPTLLPATGSTPQPGSSQQIQQRISVPPSPTYPPAGPPAFPAGDSKPELPLTVAIRPFLADKGSRPQSPRKGPQTVNSSSIYSMYLQQATPPKNYQPAAHSALNKSVKAVYGKPVLPSGSTSPSPLPFLHGSLSTGTPQPQPPSESTEKEPEQDGPAAPADGSTVESLPRPLSPTKLTPIVHSPLRYQSDADLEALRRKLANAPRPLKKRSSITEPEGPGGPNIQKLLYQRFNTLAGGMEGTPFYQPSPSQDFMGTLADVDNGNTNANGNLEELPPAQPTAPLPAEPAPSSDANDNELPSPEPEELICPQTTHQTAEPAEDNNNNVATVPTTEQIPSPVAEAPSPGEEQVPPAPLPPASHPPATSTNKRTNLKKPNSERTGHGLRVRFNPLALLLDASLEGEFDLVQRIIYEVEDPSKPNDEGITPLHNAVCAGHHHIVKFLLDFGVNVNAADSDGWTPLHCAASCNSVHLCKQLVESGAAIFASTISDIETAADKCEEMEEGYIQCSQFLYGVQEKLGVMNKGVAYALWDYEAQNSDELSFHEGDALTILRRKDESETEWWWARLGDREGYVPKNLLGLYPRIKPRQRTLA
binds: full-length FLAG-RASSF8 | [2] | [4]
no binding: all other assays above

B3: HIS-tagged ASPP2 (protein, UniProt Q13625 1-1128)
chain: MMPMFLTVYLSNNEQHFTEVPVTPETICRDVVDLCKEPGESDCHLAEVWCGSERPVADNERMFDVLQRFGSQRNEVRFFLRHERPPGRDIVSGPRSQDPSLKRNGVKVPGEYRRKENGVNSPRMDLTLAELQEMASRQQQQIEAQQQLLATKEQRLKFLKQQDQRQQQQVAEQEKLKRLKEIAENQEAKLKKVRALKGHVEQKRLSNGKLVEEIEQMNNLFQQKQRELVLAVSKVEELTRQLEMLKNGRIDSHHDNQSAVAELDRLYKELQLRNKLNQEQNAKLQQQRECLNKRNSEVAVMDKRVNELRDRLWKKKAALQQKENLPVSSDGNLPQQAASAPSRVAAVGPYIQSSTMPRMPSRPELLVKPALPDGSLVIQASEGPMKIQTLPNMRSGAASQTKGSKIHPVGPDWSPSNADLFPSQGSASVPQSTGNALDQVDDGEVPLREKEKKVRPFSMFDAVDQSNAPPSFGTLRKNQSSEDILRDAQVANKNVAKVPPPVPTKPKQINLPYFGQTNQPPSDIKPDGSSQQLSTVVPSMGTKPKPAGQQPRVLLSPSIPSVGQDQTLSPGSKQESPPAAAVRPFTPQPSKDTLLPPFRKPQTVAASSIYSMYTQQQAPGKNFQQAVQSALTKTHTRGPHFSSVYGKPVIAAAQNQQQHPENIYSNSQGKPGSPEPETEPVSSVQENHENERIPRPLSPTKLLPFLSNPYRNQSDADLEALRKKLSNAPRPLKKRSSITEPEGPNGPNIQKLLYQRTTIAAMETISVPSYPSKSASVTASSESPVEIQNPYLHVEPEKEVVSLVPESLSPEDVGNASTENSDMPAPSPGLDYEPEGVPDNSPNLQNNPEEPNPEAPHVLDVYLEEYPPYPPPPYPSGEPEGPGEDSVSMRPPEITGQVSLPPGKRTNLRKTGSERIAHGMRVKFNPLALLLDSSLEGEFDLVQRIIYEVDDPSLPNDEGITALHNAVCAGHTEIVKFLVQFGVNVNAADSDGWTPLHCAASCNNVQVCKFLVESGAAVFAMTYSDMQTAADKCEEMEEGYTQCSQFLYGVQEKMGIMNKGVIYALWDYEPQNDDELPMKEGDCMTIIHREDEDEIEWWWARLNDKEGYVPRNLLGLYPRIKPRQRSLA
binds: full-length FLAG-RASSF8 | [2] | [4]
no binding: all other assays above
